Primary screen of a compound library

Amino acid sequences for entries named in this document (tags omitted). Residues count along the entry.
UniProt Q8IDJ8, 1-583: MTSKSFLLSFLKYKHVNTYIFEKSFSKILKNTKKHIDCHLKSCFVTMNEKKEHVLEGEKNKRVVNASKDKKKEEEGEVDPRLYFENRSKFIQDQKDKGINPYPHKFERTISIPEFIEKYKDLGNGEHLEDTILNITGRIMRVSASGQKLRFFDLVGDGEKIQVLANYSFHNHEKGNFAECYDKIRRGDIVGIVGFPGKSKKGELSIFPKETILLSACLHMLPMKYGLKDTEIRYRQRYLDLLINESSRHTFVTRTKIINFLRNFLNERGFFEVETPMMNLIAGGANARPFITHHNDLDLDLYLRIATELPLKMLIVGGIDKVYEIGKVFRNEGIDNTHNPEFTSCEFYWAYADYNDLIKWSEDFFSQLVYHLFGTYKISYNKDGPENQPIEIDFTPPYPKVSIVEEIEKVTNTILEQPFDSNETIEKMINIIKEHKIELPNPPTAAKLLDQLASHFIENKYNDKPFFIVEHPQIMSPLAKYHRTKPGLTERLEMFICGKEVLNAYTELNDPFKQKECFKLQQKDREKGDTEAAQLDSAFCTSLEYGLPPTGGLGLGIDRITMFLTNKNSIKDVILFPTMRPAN
UniProt I6X8D2, whole entry: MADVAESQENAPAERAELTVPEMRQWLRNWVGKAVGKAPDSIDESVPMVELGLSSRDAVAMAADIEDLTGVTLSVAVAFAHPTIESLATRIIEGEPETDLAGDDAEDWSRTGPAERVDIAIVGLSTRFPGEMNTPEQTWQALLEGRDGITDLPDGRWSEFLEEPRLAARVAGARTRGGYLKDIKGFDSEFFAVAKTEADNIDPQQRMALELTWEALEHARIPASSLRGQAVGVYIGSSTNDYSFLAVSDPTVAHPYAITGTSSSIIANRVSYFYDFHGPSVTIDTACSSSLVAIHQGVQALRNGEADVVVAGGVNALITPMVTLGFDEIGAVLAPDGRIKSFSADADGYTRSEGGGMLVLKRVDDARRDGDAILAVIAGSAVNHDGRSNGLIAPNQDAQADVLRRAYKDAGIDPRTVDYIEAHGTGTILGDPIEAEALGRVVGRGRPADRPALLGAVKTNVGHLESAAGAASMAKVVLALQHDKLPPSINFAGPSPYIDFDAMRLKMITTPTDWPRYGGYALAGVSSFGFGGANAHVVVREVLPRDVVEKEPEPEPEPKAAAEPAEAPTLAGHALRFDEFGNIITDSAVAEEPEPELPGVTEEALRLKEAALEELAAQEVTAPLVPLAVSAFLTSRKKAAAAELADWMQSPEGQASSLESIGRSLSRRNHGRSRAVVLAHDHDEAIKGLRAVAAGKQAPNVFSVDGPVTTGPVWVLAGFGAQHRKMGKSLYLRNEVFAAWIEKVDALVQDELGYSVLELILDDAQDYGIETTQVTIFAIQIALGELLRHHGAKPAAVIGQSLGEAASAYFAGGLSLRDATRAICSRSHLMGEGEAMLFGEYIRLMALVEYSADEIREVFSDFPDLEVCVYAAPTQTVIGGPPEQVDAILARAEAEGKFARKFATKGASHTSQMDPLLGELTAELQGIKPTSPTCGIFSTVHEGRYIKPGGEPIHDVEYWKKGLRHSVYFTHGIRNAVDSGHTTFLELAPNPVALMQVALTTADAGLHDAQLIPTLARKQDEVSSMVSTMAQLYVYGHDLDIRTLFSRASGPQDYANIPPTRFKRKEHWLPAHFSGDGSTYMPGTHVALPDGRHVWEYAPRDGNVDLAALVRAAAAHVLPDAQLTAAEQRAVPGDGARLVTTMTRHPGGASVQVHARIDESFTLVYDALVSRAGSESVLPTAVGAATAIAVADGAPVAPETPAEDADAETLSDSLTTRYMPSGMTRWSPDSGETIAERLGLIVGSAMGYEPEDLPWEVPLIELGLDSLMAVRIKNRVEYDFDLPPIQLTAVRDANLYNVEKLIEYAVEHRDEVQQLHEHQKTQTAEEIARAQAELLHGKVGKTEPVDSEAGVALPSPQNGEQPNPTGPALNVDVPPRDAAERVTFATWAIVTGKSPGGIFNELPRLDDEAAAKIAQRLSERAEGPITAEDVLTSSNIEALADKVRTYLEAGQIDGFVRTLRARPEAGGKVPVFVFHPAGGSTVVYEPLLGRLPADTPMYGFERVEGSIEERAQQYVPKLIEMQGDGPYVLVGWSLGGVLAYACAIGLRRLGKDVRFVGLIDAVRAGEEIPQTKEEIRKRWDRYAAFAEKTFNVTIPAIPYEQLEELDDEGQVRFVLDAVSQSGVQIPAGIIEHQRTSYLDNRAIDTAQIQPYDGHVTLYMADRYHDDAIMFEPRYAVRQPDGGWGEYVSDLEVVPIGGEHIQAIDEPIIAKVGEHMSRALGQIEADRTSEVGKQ
UniProt P9WPC5, whole entry: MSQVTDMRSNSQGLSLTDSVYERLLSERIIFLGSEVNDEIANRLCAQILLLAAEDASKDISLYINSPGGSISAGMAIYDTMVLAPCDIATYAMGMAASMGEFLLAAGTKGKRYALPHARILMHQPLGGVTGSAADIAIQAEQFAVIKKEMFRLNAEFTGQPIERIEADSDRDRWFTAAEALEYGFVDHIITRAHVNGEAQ
UniProt P9WPC3, whole entry partner: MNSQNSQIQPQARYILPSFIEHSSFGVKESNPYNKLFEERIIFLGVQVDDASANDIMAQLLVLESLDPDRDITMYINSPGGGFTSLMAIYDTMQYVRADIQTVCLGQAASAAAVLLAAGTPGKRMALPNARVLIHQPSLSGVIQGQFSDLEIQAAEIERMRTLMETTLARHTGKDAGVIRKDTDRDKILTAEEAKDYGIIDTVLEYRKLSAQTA

A: 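Lysine-tRNA ligase, Plasmodium falciparum 3D7 (UniProt Q8IDJ8). Enzyme assay of the cytosolic lysyl-tRNA synthetase in 384-well plates, read by luminescence. Concentration: 30 µM. Direction is inferred from only a few compounds that gave an IC50; most scored high, so higher reads as stronger inhibition. Of about 69,000 compounds tested this way, about 49 (0.071%) reached 50% or more in at least one test.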
B: 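Polyketide synthase Pks13, Mycobacterium tuberculosis (UniProt I6X8D2). Enzyme assay of the thioesterase domain of polyketide synthase 13; the read-out is not stated. Concentration: 30 µM. Higher reads as stronger inhibition (inferred from which compounds were picked for retests). About 67,000 compounds were tested under these conditions; 0.46% (about 300) showed 50% or more at least once.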
C: 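Protease assay of ClpP1P2, read by the AMC dye that it sets free. Target: ClpP1P2, Mycobacterium tuberculosis (UniProt P9WPC5 and UniProt P9WPC3). Tested at 50 µM. Direction is inferred from only a few compounds that gave an IC50; most scored high, so higher reads as stronger inhibition. Most other retested compounds had strongly negative values. About 69,000 compounds were tested under these conditions; 0.015% (about 10) showed 50% or more at least once.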

Results are given as percent effect.
The controls that fix the scale are not given in the record; negative values are as filed.
The compounds are a random part of those screened.

With CCCc1nc(CNc2cccc(C(=O)N3CCCC(O)C3)c2)no1 (stereo not shown) the screen gave A: -1.229%; B: -21.58%; C: -2.077%.
With CC(C)Cc1nc(OCC(=O)O)c(C#N)c2c1CCC2 the screen gave A: 2.531%; B: -20.54%; C: 0.4204%.
With O=C(c1ccsc1)N1CCC(c2nnc(C3CC3)o2)CC1 the screen gave A: 4.938%; B: -24.31%; C: -0.6122%.
With COCCc1noc(CNC(=O)C2CC(=O)N(C(C)(C)C)C2)n1 (stereo not shown) the screen gave A: 7.219%; B: -11.7%; C: -2.799%.
With CN(C)CCN(Cc1cccc(F)c1)C(=O)c1ccc2nccn2c1 the screen gave A: 1.782%; B: -0.9101%; C: 1.334%.
With CC(C)c1nc(C2CCCN2C(=O)c2nccnc2N)no1 (stereo not shown) the screen gave A: 0.9716%; B: -0.4801%; C: -1.917%.
With O=C(Nc1ccc(-c2ccccc2)cn1)C1CCCN1C(=O)C1CC1 (stereo not shown) the screen gave A: 1.16%; B: -51.84%; C: 0.191%.
With CCS(=O)(=O)CCNC(=O)NCc1ccccc1-n1cccn1 the screen gave A: 8.998%; B: -10.2%; C: 3.679%.
With CC(=O)N(Cc1ncc(C(C)C)o1)C1CCN(CCn2cccn2)C1 (stereo not shown) the screen gave A: 7.075%; B: -12.12%; C: 12.61%.
With Cc1ccccc1C(=O)N1CCC2(CCCN2CCN(C)C)CC1 the screen gave A: 0.7659%; B: -12.33%; C: 2.674%.
With CN(C)C(=O)N1CCn2c(Cn3cccn3)cnc2C1 the screen gave A: 0.06966%; B: 26.96%; C: -5.271%.
With CCN(C(=O)c1cc(C)nc2ccccc12)C1CC(=O)NC1=O (stereo not shown) the screen gave A: 2.398%; B: -47.76%; C: 6.116%.
With O=C(Nc1cccnc1N1CCCC1)C1CCS(=O)(=O)C1 (stereo not shown) the screen gave A: 1.518%; B: -7.612%; C: -25.52%.
With CCCC1(CNCc2ncc[nH]2)CCC1 the screen gave A: 2.585%; B: -23.62%; C: -4.876%.
With CCN(C)CC1CCN(C(=O)NCCC2Cc3ccccc3C2)C1 (stereo not shown) the screen gave A: -0.524%; B: 1.219%; C: -8.93%.
With CCNC(=O)N1CCN(c2nc3ccccc3n2C)CC1 the screen gave A: 5.501%; B: -6.359%; C: -0.4311%.
With CCN(CC)c1ccc(CNC(=O)c2cccc(C)n2)cn1 the screen gave A: 3.629%; B: -1.579%; C: 12.74%.
With N#Cc1ccc(CN(CC(N)=O)Cc2cccc(F)c2)cc1 the screen gave A: 5.054%; B: -46.77%; C: -1.809%.
With O=C(O)C(c1ccc(Cl)c(F)c1)N1CCN(Cc2ccccn2)CC1 (stereo not shown) the screen gave A: 3.393%; B: -6.499%; C: -1.305%.
With COCC(=O)N1CCN(C(C)C(=O)NC(C)C)CC1 (stereo not shown) the screen gave A: 2.454%; B: 4.808%; C: 12.41%.
With Cc1ccc(NC(=O)C(C)n2ccc(C(F)(F)F)n2)nc1 (stereo not shown) the screen gave A: 8.285%; B: -12.2%; C: -7.926%.
With CN(CC(=O)Nc1cc(-n2nnnc2C2CC2)ccc1F)C1CCC1 the screen gave A: 6.085%; B: -29.62%; C: -2.199%.
With O=C(c1cncc(N2CCCC3(CCNCC3)CC2)n1)N1CCCCC1 the screen gave A: 0.7245%; B: 20.07%; C: 14.38%.
With O=C(CCc1ccccc1Br)NS(=O)(=O)c1ccc2c(c1)OCCO2 the screen gave A: 0.2893%; B: -14.66%; C: -4.564%.
With Cc1ccc(CS(=O)(=O)N2CC[C@H]3[C@H]2CCN3C)cc1 the screen gave A: 2.115%; B: 37.14%; C: -1.129%.
With Cn1nccc1-c1cnc2n1CCC21CCN(C(=O)C2(C)CC2)CC1 the screen gave A: 4.162%; B: -8.151%; C: 8.736%.
With O=C(c1cccs1)N1CCC2(CC1)CCN(S(=O)(=O)C1CC1)CC2 the screen gave A: 3.478%; B: -10.11%; C: -4.074%.
With NC1CCN(c2nccn3c(=O)[nH]nc23)CC1 the screen gave A: 1.307%; C: 19.72%.
With COc1ccc(OC2CCN(C(=O)CCc3nc(Cl)n[nH]3)CC2)cc1 the screen gave A: -3.214%; B: 3.048%; C: -0.06017%.
With O=C(NCc1cccs1)[C@H]1CC[C@@H]2[C@@H](CCN2Cc2ccoc2)O1 the screen gave A: -2.084%; B: -7.961%; C: -8.665%.
With Cc1cc(SCC(N)=O)nc(-c2cccc(F)c2)n1 the screen gave A: -1.716%; B: -19.2%; C: 8.698%.
With CC(=O)Nc1nc(C(=O)N2CCCC(n3cncn3)C2)cs1 (stereo not shown) the screen gave A: 0.2893%; B: -9.148%; C: -3.696%.
With CN1CCC(CNC(=O)c2ccc3cccc(Cl)c3n2)C1 (stereo not shown) the screen gave A: -0.6221%; B: -10.93%; C: 2.733%.
With Cc1noc([C@@H]2C[C@H]3OCC[C@H]3N(S(=O)(=O)N(C)C)C2)n1 the screen gave A: -18.83%; B: -1.877%; C: -12.56%.
With CCn1nnc(NCc2ccccc2OCc2ccc(Cl)cc2)n1 the screen gave A: 1.272%; B: 34.78%; C: -8.845%.
With Cc1cccc(NCc2ncc(C(C)(C)C)o2)c1 the screen gave A: 2.407%; B: -6.565%; C: -9.767%.

The last 2 entries again:

Compound	A	B	C
CCn1nnc(NCc2ccccc2OCc2ccc(Cl)cc2)n1	1.272	34.78	-8.845
Cc1cccc(NCc2ncc(C(C)(C)C)o2)c1	2.407	-6.565	-9.767

Source: ChEMBL document CHEMBL3988442, “University of Dundee, Small-Polar-MMV Screening Library” (2021).